These are yes or no findings as the source states them, for the method shown. Binding seen in cells or lysates may run through a third protein. A yes stands for co-enrichment or nearness to the bait. Other partners may have been found.

Assay [1] deals with T1, CCP6-mut (cytosolic carboxypeptidase 6, H230S/E233Q, enzymatically inactive), immobilized on Affi-gel10 resin (human) (UniProt Q5VU57).
T1 sequence: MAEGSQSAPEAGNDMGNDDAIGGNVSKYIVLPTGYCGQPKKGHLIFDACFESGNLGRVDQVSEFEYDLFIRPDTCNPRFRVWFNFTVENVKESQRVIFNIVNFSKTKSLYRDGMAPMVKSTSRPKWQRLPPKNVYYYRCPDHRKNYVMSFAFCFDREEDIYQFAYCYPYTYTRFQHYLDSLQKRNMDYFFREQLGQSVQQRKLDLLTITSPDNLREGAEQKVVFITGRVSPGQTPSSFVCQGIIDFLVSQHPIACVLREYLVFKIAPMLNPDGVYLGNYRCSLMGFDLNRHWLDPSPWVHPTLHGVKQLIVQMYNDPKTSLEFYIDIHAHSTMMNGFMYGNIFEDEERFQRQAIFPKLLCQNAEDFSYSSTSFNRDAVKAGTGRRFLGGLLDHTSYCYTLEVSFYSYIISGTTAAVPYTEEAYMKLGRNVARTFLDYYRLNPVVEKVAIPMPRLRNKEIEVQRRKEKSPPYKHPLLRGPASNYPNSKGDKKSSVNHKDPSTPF
Put plainly: affinity purification with mass spectrometry; CCP6-wt and CCP6-mut immobilized with Affi-gel10 resin; kidney lysates from CCP6-deficient and control mice passed through; eluted fractions on SDS-PAGE with silver staining; differential bands digested with trypsin, nano LC-ESI-LTQ MS/MS; only the target purified.

Assay [2] deals with T1, CCP6-mut (cytosolic carboxypeptidase 6, H230S/E233Q, enzymatically inactive), immobilized on Affi-gel10 resin (human). Put plainly: affinity purification with mass spectrometry; CCP6-mut immobilized to Affi-gel10 resin, mixed with serum samples from three RCC patients, each on its own; mass spectrometry; only the target purified.

B1: DNAJC7 in mouse kidney lysates (protein, UniProt Q9QYI3 1-494)
chain: MAATAECDVVMAATEPELLEDEDAKREAESFKEQGNAYYAKKDYNEAYNYYTKAIDMCPNNASYYGNRAATLMMLGRFREALGDAQQSVRLDDSFVRGHLREGKCHLSLGNAMAACRSFQRALELDHKNAQAQQEFKNANAVMEYEKIAEVDFEKRDFRKVVFCMDRALEFAPACHRFKILKAECLAMLGRYPEAQFVASDILRMDSTNADALYVRGLCLYYEDCIEKAVQFFVQALRMAPDHEKACVACRNAKALKAKKEDGNKAFKEGNYKLAYELYTEALGIDPNNIKTNAKLYCNRGTVNSKLRQLEDAIEDCTNAVKLDDTYIKAYLRRAQCYMDTEQFEEAVRDYEKVYQTEKTKEHKQLLKNAQLELKKSKRKDYYKILGVDKNASEDEIKKAYRKRALMHHPDRHSGASAEVQKEEEKKFKEVGEAFTILSDPKKKTRYDSGQDLDEEGMNMGDFDANNIFKAFFGGPGGFSFEASGPGNFYFQFG
As for B1, the binding result in assay [1] is on record as “binds”.

B2: DNAJC7 in serum of RCC patients (protein, UniProt Q99615 1-494)
chain: MAAAAECDVVMAATEPELLDDQEAKREAETFKEQGNAYYAKKDYNEAYNYYTKAIDMCPKNASYYGNRAATLMMLGRFREALGDAQQSVRLDDSFVRGHLREGKCHLSLGNAMAACRSFQRALELDHKNAQAQQEFKNANAVMEYEKIAETDFEKRDFRKVVFCMDRALEFAPACHRFKILKAECLAMLGRYPEAQSVASDILRMDSTNADALYVRGLCLYYEDCIEKAVQFFVQALRMAPDHEKACIACRNAKALKAKKEDGNKAFKEGNYKLAYELYTEALGIDPNNIKTNAKLYCNRGTVNSKLRKLDDAIEDCTNAVKLDDTYIKAYLRRAQCYMDTEQYEEAVRDYEKVYQTEKTKEHKQLLKNAQLELKKSKRKDYYKILGVDKNASEDEIKKAYRKRALMHHPDRHSGASAEVQKEEEKKFKEVGEAFTILSDPKKKTRYDSGQDLDEEGMNMGDFDPNNIFKAFFGGPGGFSFEASGPGNFFFQFG
modifications: polyglutamylated in RCC sera (GT335 signal); sites not stated
As to B2, the binding result in assay [2] is recorded as “binds”.

Source of the values: PMC5008367.
